Experimental data from publication PMC6789044.
These are yes or no findings as the source states them, for the method shown. In cells and extracts the contact can be indirect. Some entries that bind do so weakly or less than the wild type. For some assays here: Sequences can lack the tags named with a protein.

Sequences of proteins named here, by UniProt entry; tags and fusion partners are left off. Residues count along the entry.
UniProt O00206, residues 24-839: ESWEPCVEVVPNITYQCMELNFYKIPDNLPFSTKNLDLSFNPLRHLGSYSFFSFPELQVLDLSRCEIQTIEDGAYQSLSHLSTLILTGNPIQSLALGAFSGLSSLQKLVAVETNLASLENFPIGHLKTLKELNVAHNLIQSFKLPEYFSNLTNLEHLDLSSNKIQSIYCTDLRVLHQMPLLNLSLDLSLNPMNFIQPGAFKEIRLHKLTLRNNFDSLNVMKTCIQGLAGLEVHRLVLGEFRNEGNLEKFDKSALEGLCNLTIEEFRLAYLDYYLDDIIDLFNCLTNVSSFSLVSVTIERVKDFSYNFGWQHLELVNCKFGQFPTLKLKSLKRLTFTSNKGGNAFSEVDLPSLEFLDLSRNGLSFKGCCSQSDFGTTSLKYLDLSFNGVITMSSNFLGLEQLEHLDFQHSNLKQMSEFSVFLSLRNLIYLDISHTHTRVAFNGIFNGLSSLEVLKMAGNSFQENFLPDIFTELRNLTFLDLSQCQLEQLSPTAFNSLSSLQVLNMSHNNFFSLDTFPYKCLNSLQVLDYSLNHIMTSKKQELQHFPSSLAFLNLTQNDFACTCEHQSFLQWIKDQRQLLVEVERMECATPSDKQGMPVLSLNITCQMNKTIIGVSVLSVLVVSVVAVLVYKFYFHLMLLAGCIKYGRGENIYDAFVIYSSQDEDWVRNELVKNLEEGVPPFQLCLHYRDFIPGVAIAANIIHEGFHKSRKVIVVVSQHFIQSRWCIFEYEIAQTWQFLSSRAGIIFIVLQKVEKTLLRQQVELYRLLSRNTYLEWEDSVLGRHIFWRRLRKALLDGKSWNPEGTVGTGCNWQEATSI
UniProt O15455, residues 24-904: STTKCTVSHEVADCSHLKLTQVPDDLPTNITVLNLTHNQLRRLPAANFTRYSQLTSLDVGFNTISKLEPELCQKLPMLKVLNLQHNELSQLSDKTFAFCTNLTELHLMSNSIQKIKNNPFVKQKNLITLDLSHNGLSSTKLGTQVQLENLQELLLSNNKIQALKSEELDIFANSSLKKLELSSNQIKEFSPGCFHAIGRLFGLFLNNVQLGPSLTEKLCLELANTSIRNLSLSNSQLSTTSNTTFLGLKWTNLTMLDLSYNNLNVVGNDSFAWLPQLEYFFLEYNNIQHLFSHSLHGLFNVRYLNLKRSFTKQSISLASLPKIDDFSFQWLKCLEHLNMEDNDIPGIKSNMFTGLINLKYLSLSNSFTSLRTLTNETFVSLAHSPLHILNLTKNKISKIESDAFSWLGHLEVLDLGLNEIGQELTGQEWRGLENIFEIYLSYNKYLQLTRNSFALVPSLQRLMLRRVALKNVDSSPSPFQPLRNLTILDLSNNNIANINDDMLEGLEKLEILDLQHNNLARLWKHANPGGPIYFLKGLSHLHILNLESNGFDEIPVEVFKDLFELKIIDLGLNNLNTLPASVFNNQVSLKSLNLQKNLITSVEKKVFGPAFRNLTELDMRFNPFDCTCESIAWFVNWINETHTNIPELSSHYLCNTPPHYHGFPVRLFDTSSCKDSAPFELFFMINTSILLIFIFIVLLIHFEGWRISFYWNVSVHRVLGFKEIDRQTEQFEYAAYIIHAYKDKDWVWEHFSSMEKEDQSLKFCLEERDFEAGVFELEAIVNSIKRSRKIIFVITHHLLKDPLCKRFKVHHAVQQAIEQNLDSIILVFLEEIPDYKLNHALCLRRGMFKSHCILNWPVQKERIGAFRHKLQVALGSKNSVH
UniProt P09731, residues 18-225: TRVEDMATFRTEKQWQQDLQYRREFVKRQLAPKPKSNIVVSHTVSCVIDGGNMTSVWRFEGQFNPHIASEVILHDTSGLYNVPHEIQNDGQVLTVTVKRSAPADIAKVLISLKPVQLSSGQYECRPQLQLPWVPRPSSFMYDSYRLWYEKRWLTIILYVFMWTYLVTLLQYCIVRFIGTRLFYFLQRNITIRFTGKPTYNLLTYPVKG
UniProt P09727, residues 18-215: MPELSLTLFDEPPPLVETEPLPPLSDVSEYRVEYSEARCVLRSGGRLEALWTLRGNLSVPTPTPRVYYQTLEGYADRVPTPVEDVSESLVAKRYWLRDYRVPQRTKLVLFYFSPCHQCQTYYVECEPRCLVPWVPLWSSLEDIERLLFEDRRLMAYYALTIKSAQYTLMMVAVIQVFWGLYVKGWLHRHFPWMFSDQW
UniProt P09730, residues 22-227: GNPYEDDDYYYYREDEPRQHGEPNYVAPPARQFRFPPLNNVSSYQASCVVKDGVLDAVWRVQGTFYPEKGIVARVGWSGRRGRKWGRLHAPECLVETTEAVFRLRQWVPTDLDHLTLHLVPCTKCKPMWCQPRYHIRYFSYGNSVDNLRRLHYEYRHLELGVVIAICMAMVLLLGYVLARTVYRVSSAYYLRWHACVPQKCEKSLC
UniProt P60468: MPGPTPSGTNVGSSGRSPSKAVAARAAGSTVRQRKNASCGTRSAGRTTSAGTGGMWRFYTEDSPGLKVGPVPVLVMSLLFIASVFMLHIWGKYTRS

B1: UNC93B1-GFP (protein, UniProt Q9H1C4 1-597)
chain: MEAEPPLYPMAGAAGPQGDEDLLGVPDGPEAPLDELVGAYPNYNEEEEERRYYRRKRLGVLKNVLAASAGGMLTYGVYLGLLQMQLILHYDETYREVKYGNMGLPDIDSKMLMGINVTPIAALLYTPVLIRFFGTKWMMFLAVGIYALFVSTNYWERYYTLVPSAVALGMAIVPLWASMGNYITRMAQKYHEYSHYKEQDGQGMKQRPPRGSHAPYLLVFQAIFYSFFHLSFACAQLPMIYFLNHYLYDLNHTLYNVQSCGTNSHGILSGFNKTVLRTLPRSGNLIVVESVLMAVAFLAMLLVLGLCGAAYRPTEEIDLRSVGWGNIFQLPFKHVRDYRLRHLVPFFIYSGFEVLFACTGIALGYGVCSVGLERLAYLLVAYSLGASAASLLGLLGLWLPRPVPLVAGAGVHLLLTFILFFWAPVPRVLQHSWILYVAAALWGVGSALNKTGLSTLLGILYEDKERQDFIFTIYHWWQAVAIFTVYLGSSLHMKAKLAVLLVTLVAAAVSYLRMEQKLRRGVAPRQPRIPRPQHKVRGYRYLEEDNSDESDAEGEHGDGAEEEAPPAGPRPGPEPAGLGRRPCPYEQAQGGDGPEEQ

Experiments:
[1] = molecular target: T1, endogenous Derlin-1 (human (endogenous in HEK 293T)) (UniProt Q9BUN8); test: co-IP; lysis in 1% digitonin, washes 0.1% digitonin; HEK 293T lysates immunoprecipitated with anti-HA and anti-Derlin-1, blotted with anti-Sec61β, anti-Derlin-1 or anti-HA (Fig. 3c); cells and antibodies of Supplementary Figs 3d and 6b not shown
T1 sequence: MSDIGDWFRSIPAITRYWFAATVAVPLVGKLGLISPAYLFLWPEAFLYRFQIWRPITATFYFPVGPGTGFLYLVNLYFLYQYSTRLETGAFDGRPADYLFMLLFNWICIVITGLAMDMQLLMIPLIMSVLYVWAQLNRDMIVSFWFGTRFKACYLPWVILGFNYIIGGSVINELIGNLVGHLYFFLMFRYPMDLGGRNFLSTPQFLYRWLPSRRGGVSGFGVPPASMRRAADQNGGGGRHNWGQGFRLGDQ

[2] = molecular target: endogenous TLR4 (human (endogenous in HeLa)) (UniProt O00206); test: co-IP; HeLa transfected with HA-US7 (20 μM MG132, 4 h) or HA-US8 (100 μM chloroquine, 4 h); lysis in 1% NP-40; immunoprecipitated with anti-TLR3 or anti-TLR4, blotted with anti-HA; washes 0.1% NP-40
[3] = molecular target: endogenous TLR3 (human (endogenous in HeLa)) (UniProt O15455); test: as above
UNC93B1-GFP = molecular target: T2, UNC93B1-GFP (UniProt Q9H1C4); test: co-IP; HeLa expressing UNC93B1-GFP transfected with HA-US8; lysis in 1% NP-40; samples heated without boiling
T2 sequence: B1 chain

[4] = molecular target: GFP-US7 (human cytomegalovirus (HCMV)) (UniProt P09731); test: co-IP; lysis in 1% digitonin, washes 0.1% digitonin; HEK 293T lysates immunoprecipitated with anti-HA and anti-Derlin-1, blotted with anti-Sec61β, anti-Derlin-1 or anti-HA (Fig. 3c); cells and antibodies of Supplementary Figs 3d and 6b not shown
[5] = molecular target: T3, HA-US2 (human cytomegalovirus (HCMV)) (UniProt P09713); test: as above
T3 sequence: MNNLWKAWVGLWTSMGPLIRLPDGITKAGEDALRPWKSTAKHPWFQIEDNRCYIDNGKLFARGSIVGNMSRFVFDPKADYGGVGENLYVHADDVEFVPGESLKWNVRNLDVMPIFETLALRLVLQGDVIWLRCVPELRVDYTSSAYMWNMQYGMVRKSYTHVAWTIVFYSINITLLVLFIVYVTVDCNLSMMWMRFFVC

[6] = molecular target: HA-tagged HCMV US7 (human cytomegalovirus (HCMV)) (UniProt P09731); test: as above
Myc-tagged TLR3 = Myc-tagged TLR3 (UniProt O15455); test: co-IP; TLR3-Myc-expressing HeLa transfected with UNC93B1-GFP and empty vector or HA-US8, 100 μM chloroquine; immunoprecipitated with anti-Myc, blotted with anti-GFP

Row | Molecule | binding [1] | binding [2] | binding [3] | also measured
1 | HA-US11 (from UniProt P09727 18-215) | binds | – | – | –
2 | HA-tagged HCMV US7 (from UniProt P09731 18-225) | binds | binds | binds | –
3 | HA-tagged HCMV US8 (from UniProt P09730 22-227) | – | binds | binds | binding (UNC93B1-GFP): binds
4 | endogenous Sec61β (from UniProt P60468 1-96) | – | – | – | binding [4]: binds; binding [5]: binds; binding [6]: binds
5 | B1 | – | – | – | binding (Myc-tagged TLR3): binds
